Measurements reported in PubChem BioAssay AID1487 (National Center for Advancing Translational Sciences (NCATS), 2009).
About 25 (0.01%) of roughly 200,000 compounds were called active. The shares of active, inactive and inconclusive entries below differ from those in the screen. The call rests on the fitted dose curve; in most records, active means well fitted inhibition curve with a large enough effect in the signal ratio, with a control signal flat (not every such curve was filed as active); inconclusive means small, poorly fitted or top-dose-only effect, or effect the other way, or a change in a side signal; inactive means flat fitted curve, though single readings scatter; the % refers to the signal ratio. Where the call is inconclusive, the potency comes from a doubtful curve fit.

test: qHTS Assay for Modulators of Lamin A Splicing; settings: HeLa LMNA splicing GFP/RFP minigene ratio, 48 h; ratio change, negative = inhibition: at 46.1 µM (top of the series) unless noted
How it was run: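 S3 HeLa cells stably expressing lamin A-EGFP splicing minigene plus DsRed2, 600 cells/well, 48 h compound exposure at 37C. Laser-scanning cytometry; analysed as GFP (500-530 nm)/RFP (575-640 nm) total intensity ratio; 0.5% DMSO vehicle.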
On the % scale 0 is the no-effect control and ±100 the full control effect; potency means the concentration at half of the fitted maximal effect.

| SMILES | ratio change, negative = inhibition | Potency |
| --- | --- | --- |
| CCOC(=O)C1C(=O)C=C(c2ccc(C)cc2)CC1c1ccccc1 (configuration not stated) | inconclusive: -8.56% [at 46 µM] | – |
| COc1ccc(C2=C(C)C(N3CCC(C(=O)Nc4cc(C)ccc4C)CC3)=NS2(=O)=O)cc1 | inactive: -10.8% [at 46 µM] | – |
| COc1ccc(-n2ccnc2)cc1 | inconclusive: 22.1% [at 46 µM] | – |
| S=C(Nc1ccccc1)Nc1nccs1 | – | inconclusive: 3.55 µM [cytotoxic, full curve] |
| COc1ccc(S(=O)(=O)NCC2CCC(C(=O)NCc3ccco3)CC2)cc1 (configuration not stated) | inconclusive: 7.52% | – |
| O=C(NNc1cccc(Cl)c1)c1cccnc1Cl | inactive: 7.8% | – |
| COc1cccc(N2CCN(C(=O)c3cc4c(=O)n(Cc5cccs5)ccc4nc3C)CC2)c1 | inconclusive: -6.9% [at 46 µM] | – |
| CCN(CC)CCn1c2c(c(SCC(=O)Nc3cccc(C(F)(F)F)c3)nc1=O)CCC2 | inconclusive: -25.8% [at 46 µM] | – |
| CCOc1ccc(-c2cn3c(n2)sc2cc(C(=O)NCCCN(CC)CC)ccc23)cc1 | inactive: 4.14% [at 46 µM] | – |
| CCOC(=O)c1[nH]c(C)c(CCC(=O)NC(C)c2ccccc2)c1C (configuration not stated) | inconclusive: 11.7% [at 46 µM] | – |
| Cc1ccc(C(=O)CSc2cnc3ccccc3n2)cc1C | – | inconclusive: 22.4 µM [fluorescent, single point] |
| CCCC(=O)Nc1sc(C(=O)OC)c(C)c1C(N)=O | inactive: -1.41% | – |
| CC(=NCCCn1ccnc1)c1c(-c2ccccc2)[nH]n(-c2nc3ccccc3s2)c1=O | inconclusive: -31.3% | – |
| COc1cc(/C=N/N2CCN(C3c4ccccc4-c4ccccc43)CC2)cc(OC)c1OC | inactive: -11.6% | – |
| COC(=O)c1ccc(Nc2cc(C)nc3nc(C)nn23)cc1 | inactive: -3% | – |
| O=C(Cn1ccn(-c2cccc(Cl)c2)c(=O)c1=O)c1ccc(F)cc1 | inactive: 0.652% [at 46 µM] | – |
| O=C(C1CCN(C2CCN(Cc3ccc4cc(F)ccc4n3)CC2)CC1)N1CCCC1 | inconclusive: -32.2% [at 46 µM] | – |
| CSc1ccc(C(=O)c2[nH]c(=O)[nH]c2C)cc1 | inconclusive: 22.8% | – |
| CCC(C)(C(=O)NC1CCCCC1)N(C(=O)c1ccccn1)c1ccccc1 (configuration not stated) | inactive: 13.6% | – |
| CCOC(=O)CCCNC(=O)CSc1nc2ccc(OCC)cc2[nH]1 | inactive: 10.6% [at 46 µM] | – |
| O=C(c1ccccc1)N1CCOC12CCN(c1ncc(C(F)(F)F)cc1Cl)CC2 | – | inconclusive: 35.5 µM [falling, single point] |
| Cc1cc(C)nc(NC2=NCCN2C(=S)Nc2c(C)cccc2C)n1 | – | inconclusive: 14.1 µM [inhibitor, single point] |
| Cc1ccc(Cl)cc1N(Cc1ccc(C(=O)NCc2cccnc2)cc1)S(=O)(=O)c1ccccc1 | – | inconclusive: 35.5 µM [fluorescent, single point] |
| CCCc1ccc(-c2cc(NC(=O)CSc3n[nH]c(N)n3)n(-c3ccccc3)n2)cc1 | inconclusive: 19.2% | – |
| COC(=O)[C@@H]1C[C@]2(OC(=O)c3ccccc3)C=CC(=O)C[C@@H]2N1C(=O)OCc1ccccc1 | inconclusive: 254% | – |
| O=Nc1c(O)n(Cc2cccc(C(F)(F)F)c2)c2ccccc12 | inconclusive: -21.9% [at 46 µM] | – |

| SMILES | ratio change, negative = inhibition | Potency |
| --- | --- | --- |
| CCOC(=O)CC(C#N)c1cn(C)c2ccccc12 (configuration not stated) | inconclusive: -5.07% | – |
| O=C(NCc1ccccc1Cl)c1ccc2c(c1)SC1=NS(=O)(=O)CCN12 | inconclusive: -15.6% [at 46 µM] | – |
| CC(=O)O[C@H]1CSC[C@H]1NC(=O)c1ccccc1 | inconclusive: 3.13% | – |
| COc1ccc(NC(=O)C2CCCN(S(=O)(=O)c3ccc4c(c3)CCCN4C(C)=O)C2)cc1 (configuration not stated) | inconclusive: -6.47% [at 46 µM] | – |
| CCCNC(=S)Nc1ccc(Nc2ccccc2)cc1 | inactive: 0.0096% | – |
| Cc1nc(N2CCCCC2)sc1C(=O)c1ccc(Cl)c([N+](=O)[O-])c1 | – | inconclusive: 12.6 µM [falling, partial curve, poor fit] |
| ClC1(Cl)CC1CSc1ncn[nH]1 (configuration not stated) | inconclusive: -0.721% [at 46 µM] | – |
| Nc1c(CO)nnn1-c1ccccc1 | inconclusive: 27.7% | – |
| O=S(=O)(Cc1ccccc1)Nc1ccc(Br)cn1 | inconclusive: 2.39% [at 46 µM] | – |
| COc1ccc(NC(=O)CSc2c3c(nc4ccccc24)CCC3)c(OC)c1 | inconclusive: -36.3% | – |
| CC(=O)c1c(C)[nH]c(C(=O)Nc2c(C)n(C)n(-c3ccccc3)c2=O)c1C | inconclusive: 13.6% | – |
| CCOC(=O)c1c(-c2ccc(C)o2)csc1NC(=O)COC(=O)c1ccc(NC(N)=O)cc1 | inactive: -8.15% | – |
| COc1ccc(CN=C2NN=C(c3cccc(OC)c3)CS2)cc1 | inconclusive: -21.4% [at 46 µM] | – |
| Cc1ccccc1-c1cc(Nc2ccccc2)ncn1 | inconclusive: -8.22% | – |
| c1ccc(CSc2nnc3c(n2)OC(c2ccco2)Nc2ccccc2-3)cc1 (configuration not stated) | inconclusive: 12.2% | – |
| CCC(C)NC(=O)CCNS(=O)(=O)c1ccc(Br)cc1 (configuration not stated) | inactive: -2.47% | – |
| O=C(/C=C/c1nc2ccccc2s1)N1CCCCCC1 | inconclusive: 8.01% [at 46 µM] | – |
| CC(=O)Nc1ccc(C(C#N)c2ccccc2)cc1 (configuration not stated) | inactive: 8.56% [at 46 µM] | – |
| COc1ccc(-c2cc(N)n(S(=O)(=O)c3c(F)c(F)c(F)c(F)c3F)n2)cc1OC | inconclusive: -39.3% | – |
| N#CCCSc1nc(N2CCOCC2)c2c(c1C#N)CCCC2 | inactive: 16.2% | – |
| COc1ccc(C2Nc3ccccc3C(=O)N2NS(=O)(=O)c2ccccc2)cc1 (configuration not stated) | inactive: 5.93% [at 46 µM] | – |
| COc1ccccc1OCC(=O)NN=C(Cc1ccccc1)Cc1ccccc1 | inconclusive: -1.95% | – |
| COc1ccc(Oc2ncc3nc(-c4ccc(F)cc4)c(=O)n(C[C@H]4CCCO4)c3n2)cc1 | – | inconclusive: 10 µM [inhibitor, partial curve] |
| CCN(C(=O)COc1cc(=O)n(CC)c2ccccc12)c1cccc(Cl)c1 | inactive: -11.9% | – |
| Cc1cccc(-n2nnnc2SCc2csc(-c3ccccc3)n2)c1 | – | inconclusive: 35.5 µM [falling, single point] |
| CC1=C/C(=N\N=C2\NC(=O)C(CC(=O)Nc3ccccc3F)S2)CC(C)(C)C1 (configuration not stated) | – | inconclusive: 31.6 µM [inhibitor, single point] |

Record cards, from the list above. Order of values: ratio change, negative = inhibition	Potency
CCC(C)NC(=O)CCNS(=O)(=O)c1ccc(Br)cc1 (configuration not stated) is listed as inactive: -2.47%	–
CC(=O)c1c(C)[nH]c(C(=O)Nc2c(C)n(C)n(-c3ccccc3)c2=O)c1C is listed as inconclusive: 13.6%	–
